“And” between values parts separate entries of the source, which are not always exact repeats. Equal entries are not always repeated. In all, about 360,000 compounds went through this assay and about 7,500 (2.1%) were called active. This list was built around the results that the source calls inconclusive (neither active nor inactive); the mix of calls is not that of the screen. The call rests on the fitted dose curve; in most records, active means well fitted inhibition curve with a large enough effect; inconclusive means small, poorly fitted or top-dose-only effect, or effect the other way; inactive means flat fitted curve, though single readings scatter. Potencies of inconclusive entries are doubtful fits and often do not repeat.
Assay: Nrf2 qHTS screen for inhibitors; further: nearly all actives have a fitted effect of over 60% in size
Conditions: A549 ARE-Fluc reporter, luciferase luminescence, 18-24 h; activity change, negative = inhibition: at 46 µM (top of the series)
Summary of the method: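 Quantitative HTS in A549 cells stably bearing an antioxidant response element-firefly luciferase construct. Inhibition of Nrf2-driven transcription was scored by luminescence after 18-24 h of compound exposure at 37 °C.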
On the % scale 0 is the no-effect control and ±100 the full control effect; potency means the concentration at half of the fitted maximal effect.

| SMILES | activity change, negative = inhibition | Potency |
| --- | --- | --- |
| Fc1ccc(CN2CCN(C(c3ccccc3)c3ccccc3)CC2)cc1 | inactive: 6.42% |  |
| NC(=O)c1cc([N+](=O)[O-])ccc1NCc1cccc(N)c1 |  | inconclusive: 29.1 µM [falling, partial curve, poor fit] |
| COc1ccccc1-c1nc(C#N)c(N2CCN(C(c3ccccc3)c3ccccc3)CC2)o1 |  | inconclusive: 0.58 µM [falling, full curve, poor fit] |
| Cc1ccc(-c2csc(N)n2)cc1 |  | inconclusive: 9.2 µM [activator, partial curve] |
| OCCC1CN(Cc2nc3c(s2)CCCC3)CCN1Cc1ccccc1 (stereo not drawn) |  | inconclusive: 23.1 µM [falling, partial curve, poor fit] |
| CCCNC(=S)Nc1ccc(F)cc1F |  | active: 11.6 µM |
| CCNc1nc(CN2CCCCC2)nc2scc(-c3ccccc3)c12 |  | inconclusive: 20.6 µM [falling, single point] |
| CCC(=O)N1c2ccc(S(=O)(=O)NCc3cccc(OC)c3)cc2CC1C (stereo not drawn) |  | inconclusive: 25.9 µM [falling, single point] |
| CCCCNC(=S)NNC(=O)C1=NN(c2cc(C)ccc2C)C(=O)CC1 |  | inconclusive: 29.1 µM [activator, single point] |
| Cc1ccc(CSCC(=O)N2CCCC2)cc1 | inactive: 3.07% |  |
| COCCN(C(=O)COC(=O)CCC(=O)c1cccs1)c1c(N)n(Cc2ccccc2)c(=O)[nH]c1=O |  | inconclusive: 32.6 µM [activator, single point] |
| COc1cc(NC(=O)CCc2c(C)nc3nc(-c4cc(OC)cc(OC)c4)nn3c2C)cc(OC)c1 | inactive: -3.89% |  |
| O=C(NCc1cccs1)c1cc(C2CC2)on1 |  | inconclusive: 20.6 µM [activator, partial curve, poor fit] |
| CCCCN(CC)CCNC(=O)c1cc2c(-c3ccc(Cl)cc3)nn(C)c2s1 |  | inactive and inconclusive: 8.2 µM [activator, partial curve, poor fit] |
| Cc1cccc(C(=O)OC(C)CN2CCOCC2)c1 (stereo not drawn) |  | inconclusive: 16.4 µM [activator, single point] |
| c1ccc2[nH]c(SCc3cn4ccccc4n3)nc2c1 |  | inconclusive: 10.3 µM [activator, partial curve] |
| COC(=O)CNc1nc(-c2ccccc2F)nc2ccccc12 |  | inconclusive: 25.9 µM [falling, single point] |
| CC(=O)Nc1ccc(SC[C@H](Cc2ccccc2)N2CC[C@@H](C(C)(C)C)CCC2=O)cc1 |  | inconclusive: 1.46 µM [falling, partial curve, poor fit] |

Ordered by molecular weight (high to low): part of the list above.

| SMILES | activity change, negative = inhibition | Potency |
| --- | --- | --- |
| COCCN(C(=O)COC(=O)CCC(=O)c1cccs1)c1c(N)n(Cc2ccccc2)c(=O)[nH]c1=O |  | inconclusive: 32.6 µM [activator, single point] |
| COc1ccccc1-c1nc(C#N)c(N2CCN(C(c3ccccc3)c3ccccc3)CC2)o1 |  | inconclusive: 0.58 µM [falling, full curve, poor fit] |
| O=C(NCc1cccs1)c1cc(C2CC2)on1 |  | inconclusive: 20.6 µM [activator, partial curve, poor fit] |

Source: PubChem BioAssay AID504444 (National Center for Advancing Translational Sciences (NCATS), 2011)
